Reference: publication PMC9068813

Tested on: NELF-C patch mutant complex R291Q,K315M,K371M,K372M,K374M,K384M,K388M,R419Q,R506Q,NELF-C:
Test: EMSA (NELF release from PEC)
Details: 20 mM Na-HEPES pH 7.4, 100 mM NaCl, 25 mM KCl, 3 mM MgCl2, 2 mM DTT, assembly 30 °C, eRNA incubation 15-20 min at room temperature, 3.5% native PAGE 0.5x TBE at 4 °C, recombinant protein, protein details: His-tag (Ni-NTA purified)

Row | Sequence | binding result (weaker than with ΔRRM) | binding result (hardly any release)
1 | GCGGUGAGAGUGAUUUUGUAACUCUAAAGUUACAGAGGGUUUUGUUGUGUUUUUAAUCAAGAGCCCUGGUUUUGAUUUGUGGGUAAUCUUUCUUUAAACCUCGCCCAUUUCCGGCCUGGUGACCUGGGCCACUUUCUCAUGUUGACCCAGAUGAUCCUCAGUAGCAAGAACAAAAGGACAACAGAUGUGGAAACACUCAA [Nr4a1-(a) eRNA 1-200] | binds more weakly | 
2 | GCGGUGAGAGUGAUUUUGUAACUCUAAAGUUACAGAGGGUUUUGUUGUGUUUUUAAUCAAGAGCCCUGGUUUUGAUUUGUGGGUAAUCUUUCUUUAAACC [Nr4a1-(a) eRNA 1-100] |  | binds more weakly

For at least one entry, the source does not settle the construct or the ends of the probe. A weaker result is weaker than the reference pair of the same experiment.
